Residue numbers refer to the chain shown, from its start. In names and notes the source's numbering stands. No constants are given. Whether binding was seen depends on the method and setting. Some binding calls cover weakened binding; strength is not graded here. Where a sequence is shown, tags or fusion partners need not be part of it.

The target of assay [1] is T1, Thermosipho melanesiensis CtfA (alpha subunit of acetoacetyl-CoA:acetate CoA transferase CtfAB), N-terminal 6x histidine tag (Thermosipho melanesiensis) (UniProt A6LM40).
T1 sequence: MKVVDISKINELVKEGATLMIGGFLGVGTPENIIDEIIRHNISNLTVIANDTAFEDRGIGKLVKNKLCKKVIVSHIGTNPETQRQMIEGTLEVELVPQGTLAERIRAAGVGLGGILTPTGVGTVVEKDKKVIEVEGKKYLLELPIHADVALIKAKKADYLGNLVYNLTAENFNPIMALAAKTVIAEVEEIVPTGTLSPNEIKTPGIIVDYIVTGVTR
Put plainly: crystal structure; hanging drop, purified co-expressed CtfAB 5-6 mg/mL in 10 mM MOPS, 5% glycerol, 50 mM Na2SO4, 50 mM NaCl, 1 mM DTT, pH 7.5; reservoir 100 mM Na acetate pH 4.9-5.5, 6-10% PEG 3350; F42T/S45C co-crystal with 5-10 mM acetyl-CoA; space group P4(1)2(1)2; both purified.

Assay [2] deals with T1, Thermosipho melanesiensis CtfA (alpha subunit of acetoacetyl-CoA:acetate CoA transferase CtfAB), N-terminal 6x histidine tag (Thermosipho melanesiensis). Put plainly: SEC; subunits co-expressed in E. coli; after heat treatment and nickel affinity by the His6 tag on CtfA, HiLoad Superdex 26/600 200 pg in 300 mM NaCl, 50 mM NaH2PO4, 100 mM Na2SO4, 20% glycerol, pH 8.0; fractions analysed by SDS-PAGE; both purified. Background: Size exclusion chromatography separates by hydrodynamic size, large species first.

B1: Thermosipho melanesiensis CtfB (beta subunit of acetoacetyl-CoA:acetate CoA transferase CtfAB), wild type, untagged (enzyme, UniProt A6LM39 1-214)
chain: MNPKEKIAIRVAQELKKGQLVNLGIGLPTLVANYIPKDIHVFFQSENGIIGMGPAPKEGYENSDLTNAGASYITALPGAMTFDSAFSFGIIRGGHLDVTVLGGLQVDEEGHLANWMIPGKMIPGMGGAMDLVTGAKKVIVAMTHTAKGTPKIVKKCTLPLTSIRKVDLIVTELAVIEPTDEGLLLKEISKETTLDEVLKLTEAKLIIADDLKIF
For B1, the binding result in assay [1] and in assay [2] was “binds” in each case.

B2: Thermosipho melanesiensis CtfB (beta subunit) F42T/S45C mutant, untagged (enzyme, UniProt A6LM39 1-214)
chain: B1 chain with F42T, S45C
With B2, the binding result in assay [1] is reported as “binds”.

B3: Thermosipho melanesiensis CtfB (beta subunit) E46D mutant, untagged (enzyme, UniProt A6LM39 1-214)
chain: B1 chain with E46D
As to B3, the binding result in assay [1] is on record as “binds”.

B4: Thermosipho melanesiensis CtfB (beta subunit) E46S mutant, untagged (enzyme, UniProt A6LM39 1-214)
chain: B1 chain with E46S
In the case of B4, in assay [1], the binding entry is recorded as “binds”.
